Our source for the binding values is PMC9676655.

Protein sequences, listed by entry. Tags and fused reporters are not part of them.
UniProt O70511: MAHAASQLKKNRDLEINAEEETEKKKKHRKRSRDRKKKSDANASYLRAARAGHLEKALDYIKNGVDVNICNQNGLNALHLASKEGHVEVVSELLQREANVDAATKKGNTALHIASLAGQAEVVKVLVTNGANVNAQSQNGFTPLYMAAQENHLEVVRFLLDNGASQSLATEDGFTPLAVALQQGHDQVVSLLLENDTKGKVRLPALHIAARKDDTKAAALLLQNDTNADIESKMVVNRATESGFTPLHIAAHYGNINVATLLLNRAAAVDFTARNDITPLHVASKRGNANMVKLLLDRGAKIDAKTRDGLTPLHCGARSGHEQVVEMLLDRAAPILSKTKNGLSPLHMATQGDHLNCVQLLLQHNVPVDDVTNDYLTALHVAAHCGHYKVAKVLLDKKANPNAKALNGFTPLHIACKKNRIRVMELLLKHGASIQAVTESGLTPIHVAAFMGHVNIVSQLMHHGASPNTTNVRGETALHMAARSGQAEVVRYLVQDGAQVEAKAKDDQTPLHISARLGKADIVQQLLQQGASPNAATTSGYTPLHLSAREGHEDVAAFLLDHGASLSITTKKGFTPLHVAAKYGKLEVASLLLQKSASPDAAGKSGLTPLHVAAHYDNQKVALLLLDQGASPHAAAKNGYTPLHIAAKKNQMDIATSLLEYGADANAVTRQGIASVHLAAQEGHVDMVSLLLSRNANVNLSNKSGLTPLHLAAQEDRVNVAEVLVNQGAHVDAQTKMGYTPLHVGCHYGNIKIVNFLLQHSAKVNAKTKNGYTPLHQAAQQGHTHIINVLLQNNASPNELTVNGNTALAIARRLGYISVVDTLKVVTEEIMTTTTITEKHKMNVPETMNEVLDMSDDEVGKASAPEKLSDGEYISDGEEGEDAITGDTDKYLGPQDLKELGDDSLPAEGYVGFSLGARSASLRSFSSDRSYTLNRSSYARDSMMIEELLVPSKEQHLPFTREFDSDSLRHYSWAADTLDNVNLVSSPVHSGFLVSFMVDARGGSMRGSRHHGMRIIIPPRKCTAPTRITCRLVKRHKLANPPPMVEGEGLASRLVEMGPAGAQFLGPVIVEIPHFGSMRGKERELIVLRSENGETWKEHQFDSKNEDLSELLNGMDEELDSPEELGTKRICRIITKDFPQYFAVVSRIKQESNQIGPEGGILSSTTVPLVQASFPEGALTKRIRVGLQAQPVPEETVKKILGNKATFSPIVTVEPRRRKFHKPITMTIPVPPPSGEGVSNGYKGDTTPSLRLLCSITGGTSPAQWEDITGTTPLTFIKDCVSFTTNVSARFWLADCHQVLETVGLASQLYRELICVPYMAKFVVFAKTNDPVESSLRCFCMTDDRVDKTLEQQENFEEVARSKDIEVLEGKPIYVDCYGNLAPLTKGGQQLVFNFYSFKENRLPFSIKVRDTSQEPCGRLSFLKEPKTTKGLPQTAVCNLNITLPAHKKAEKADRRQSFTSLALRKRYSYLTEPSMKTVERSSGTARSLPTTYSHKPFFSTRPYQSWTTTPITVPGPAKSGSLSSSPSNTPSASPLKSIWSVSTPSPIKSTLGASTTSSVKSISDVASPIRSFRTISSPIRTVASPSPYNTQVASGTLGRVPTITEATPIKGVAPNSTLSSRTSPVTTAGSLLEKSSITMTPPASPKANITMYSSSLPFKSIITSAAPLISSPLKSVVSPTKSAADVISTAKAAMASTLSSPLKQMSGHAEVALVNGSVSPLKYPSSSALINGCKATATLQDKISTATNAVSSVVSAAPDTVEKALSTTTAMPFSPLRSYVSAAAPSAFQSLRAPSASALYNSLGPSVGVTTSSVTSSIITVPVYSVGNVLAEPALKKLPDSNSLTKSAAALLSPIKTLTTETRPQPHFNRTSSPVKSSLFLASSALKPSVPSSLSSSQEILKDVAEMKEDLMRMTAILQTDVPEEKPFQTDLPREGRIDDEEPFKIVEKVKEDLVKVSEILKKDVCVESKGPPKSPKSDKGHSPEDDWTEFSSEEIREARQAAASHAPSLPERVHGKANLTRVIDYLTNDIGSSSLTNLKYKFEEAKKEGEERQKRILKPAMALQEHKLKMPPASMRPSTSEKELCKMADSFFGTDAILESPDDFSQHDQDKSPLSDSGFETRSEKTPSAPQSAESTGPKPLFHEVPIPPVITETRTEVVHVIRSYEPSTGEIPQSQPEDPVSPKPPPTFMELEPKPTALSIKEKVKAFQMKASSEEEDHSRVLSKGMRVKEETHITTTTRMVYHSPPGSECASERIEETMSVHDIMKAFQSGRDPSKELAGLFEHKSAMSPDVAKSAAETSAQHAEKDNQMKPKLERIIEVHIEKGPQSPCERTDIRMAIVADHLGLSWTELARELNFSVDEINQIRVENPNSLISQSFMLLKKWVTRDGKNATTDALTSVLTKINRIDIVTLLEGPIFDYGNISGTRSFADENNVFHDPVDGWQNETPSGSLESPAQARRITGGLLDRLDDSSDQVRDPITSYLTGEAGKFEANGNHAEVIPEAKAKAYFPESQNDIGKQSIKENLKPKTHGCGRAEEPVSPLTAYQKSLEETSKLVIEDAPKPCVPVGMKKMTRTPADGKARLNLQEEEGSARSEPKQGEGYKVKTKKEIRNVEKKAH
UniProt Q6MG49: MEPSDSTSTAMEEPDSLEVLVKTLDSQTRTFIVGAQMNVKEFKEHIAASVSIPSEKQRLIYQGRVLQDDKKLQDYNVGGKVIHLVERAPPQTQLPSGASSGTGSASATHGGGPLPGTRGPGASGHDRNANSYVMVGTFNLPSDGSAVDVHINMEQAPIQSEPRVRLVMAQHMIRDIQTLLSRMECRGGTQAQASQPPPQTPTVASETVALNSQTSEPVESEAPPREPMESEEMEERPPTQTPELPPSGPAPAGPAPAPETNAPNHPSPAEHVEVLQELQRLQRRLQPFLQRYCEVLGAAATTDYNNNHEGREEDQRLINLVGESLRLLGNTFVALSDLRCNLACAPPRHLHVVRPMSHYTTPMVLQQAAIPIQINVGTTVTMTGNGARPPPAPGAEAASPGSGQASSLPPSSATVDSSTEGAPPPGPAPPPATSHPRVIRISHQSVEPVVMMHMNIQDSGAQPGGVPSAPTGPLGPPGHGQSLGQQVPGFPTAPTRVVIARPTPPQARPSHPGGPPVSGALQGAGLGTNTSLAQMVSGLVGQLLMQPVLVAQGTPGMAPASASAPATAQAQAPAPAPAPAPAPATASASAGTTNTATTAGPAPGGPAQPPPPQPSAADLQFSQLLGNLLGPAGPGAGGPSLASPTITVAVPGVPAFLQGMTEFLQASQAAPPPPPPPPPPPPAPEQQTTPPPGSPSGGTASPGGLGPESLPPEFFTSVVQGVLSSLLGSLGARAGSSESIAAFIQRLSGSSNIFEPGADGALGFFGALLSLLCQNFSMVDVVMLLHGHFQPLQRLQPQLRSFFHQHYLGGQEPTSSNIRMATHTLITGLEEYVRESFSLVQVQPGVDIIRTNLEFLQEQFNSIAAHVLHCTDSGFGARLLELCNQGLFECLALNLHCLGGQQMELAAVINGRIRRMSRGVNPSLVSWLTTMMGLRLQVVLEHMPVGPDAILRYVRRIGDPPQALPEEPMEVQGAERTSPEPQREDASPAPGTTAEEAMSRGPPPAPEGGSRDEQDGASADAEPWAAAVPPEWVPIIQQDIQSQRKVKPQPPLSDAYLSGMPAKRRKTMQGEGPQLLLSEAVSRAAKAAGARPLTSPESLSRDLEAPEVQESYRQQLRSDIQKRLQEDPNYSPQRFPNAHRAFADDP
UniProt Q8R560: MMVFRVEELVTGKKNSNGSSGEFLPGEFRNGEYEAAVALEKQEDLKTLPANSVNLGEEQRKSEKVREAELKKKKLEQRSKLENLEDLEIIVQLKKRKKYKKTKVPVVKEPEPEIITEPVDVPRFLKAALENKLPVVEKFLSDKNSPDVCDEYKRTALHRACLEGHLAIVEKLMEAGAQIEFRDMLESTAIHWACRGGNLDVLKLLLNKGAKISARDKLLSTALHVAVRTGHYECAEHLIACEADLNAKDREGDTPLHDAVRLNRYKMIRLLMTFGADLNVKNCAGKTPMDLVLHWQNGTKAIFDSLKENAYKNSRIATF
UniProt O08629: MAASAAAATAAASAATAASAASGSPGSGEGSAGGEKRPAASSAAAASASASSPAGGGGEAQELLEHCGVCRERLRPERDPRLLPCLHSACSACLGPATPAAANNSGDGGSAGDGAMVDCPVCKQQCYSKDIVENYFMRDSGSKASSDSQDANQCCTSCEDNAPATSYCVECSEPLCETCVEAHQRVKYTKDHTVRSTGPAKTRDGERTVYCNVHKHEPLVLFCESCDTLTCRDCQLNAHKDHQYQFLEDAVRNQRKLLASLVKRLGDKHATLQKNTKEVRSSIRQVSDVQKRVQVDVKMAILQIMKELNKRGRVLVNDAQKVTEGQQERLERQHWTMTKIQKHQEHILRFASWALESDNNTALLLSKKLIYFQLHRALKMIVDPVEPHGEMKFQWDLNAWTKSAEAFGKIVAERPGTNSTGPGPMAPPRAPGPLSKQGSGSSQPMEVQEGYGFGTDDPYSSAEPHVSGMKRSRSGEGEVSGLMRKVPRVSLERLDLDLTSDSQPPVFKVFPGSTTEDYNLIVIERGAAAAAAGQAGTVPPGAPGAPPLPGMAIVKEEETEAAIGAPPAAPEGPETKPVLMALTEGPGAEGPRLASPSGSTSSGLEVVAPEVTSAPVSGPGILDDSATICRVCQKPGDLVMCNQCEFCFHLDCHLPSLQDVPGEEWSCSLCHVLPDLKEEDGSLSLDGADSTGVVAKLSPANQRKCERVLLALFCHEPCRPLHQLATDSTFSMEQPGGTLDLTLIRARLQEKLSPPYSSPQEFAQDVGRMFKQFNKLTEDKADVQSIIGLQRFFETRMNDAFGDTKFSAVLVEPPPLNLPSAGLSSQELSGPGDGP

Experiment [1] deals with T1, C-terminal Flag tagged PERM1 (PERM1-Flag) (UniProt Q149B8).
T1 sequence: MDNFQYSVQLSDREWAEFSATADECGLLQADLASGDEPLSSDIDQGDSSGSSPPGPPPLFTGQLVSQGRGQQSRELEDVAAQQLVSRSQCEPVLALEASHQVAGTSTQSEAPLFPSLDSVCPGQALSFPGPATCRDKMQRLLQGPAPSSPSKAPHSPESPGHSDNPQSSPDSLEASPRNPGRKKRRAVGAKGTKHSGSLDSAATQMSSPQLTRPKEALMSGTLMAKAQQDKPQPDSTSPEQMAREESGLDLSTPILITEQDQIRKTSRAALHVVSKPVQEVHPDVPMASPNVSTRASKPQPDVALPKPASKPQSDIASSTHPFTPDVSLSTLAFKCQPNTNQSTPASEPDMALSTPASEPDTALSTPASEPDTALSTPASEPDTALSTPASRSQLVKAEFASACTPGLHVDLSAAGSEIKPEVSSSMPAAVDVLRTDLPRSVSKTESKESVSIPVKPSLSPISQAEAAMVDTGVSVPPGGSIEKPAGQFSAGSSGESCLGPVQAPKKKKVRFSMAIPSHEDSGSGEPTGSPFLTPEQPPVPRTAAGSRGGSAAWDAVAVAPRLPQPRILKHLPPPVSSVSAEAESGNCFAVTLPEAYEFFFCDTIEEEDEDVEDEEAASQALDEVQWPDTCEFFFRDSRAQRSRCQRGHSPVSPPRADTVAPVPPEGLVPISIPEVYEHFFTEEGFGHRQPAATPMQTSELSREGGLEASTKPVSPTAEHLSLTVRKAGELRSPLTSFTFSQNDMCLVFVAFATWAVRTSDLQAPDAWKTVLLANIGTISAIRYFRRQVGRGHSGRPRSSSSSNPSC
The experiment is described as follows: affinity purification with mass spectrometry; Perm1-Flag expressed in primary cultured cardiomyocytes by adenovirus vector; whole lysate immunoprecipitated with anti-Flag antibody; SDS-PAGE, LC-MS/MS.

The target in experiment [2] is T1, C-terminal Flag tagged PERM1 (PERM1-Flag). The description is as above. The source holds these as a separate data set.

Like-named read-outs stand apart in the source and are kept apart here. Results are given in words; binding and its absence hold for the method and conditions named. Binding seen in cells or lysates may run through a third protein. These calls come from enrichment with a bait or labelling near it, and not all partners need be listed. Sequences can lack the tags named with a protein.

For the molecule ANKYRIN2, the binding result in experiment [1] was “binds”.

On to ANKYRIN3 (from UniProt O70511 1-2622), for which the binding entry in experiment [1] was “binds”. The same measure, in the same setting: with “BLC2-associated anthanogene-6 (BAG6) (from UniProt Q6MG49 1-1146)” the entry was “binds”; with “ankyrin repeat domain 1 (ANKRD1) (from UniProt Q8R560 1-319)”, “binds”.

In the case of “transcriptional intermediary factor 1β (TIF1β) (from UniProt O08629 1-835)”, the binding entry in experiment [1] was “binds”.

B1: KANK2 (KN motif and ankyrin repeat domains 2) (protein, UniProt D3ZD05 1-847)
chain: MAQVLHVPAPFPGTPGQASSAAFPNKEPDPPYSVETPYGYRLDLDFLKYVDDIEKGHTLRRVPVQRRPRLGSLPRGPGSWWTSTESLCSDASGDSRHSAYSYCGRGFYPQYGALETRSGTNPRVERTLLDARRRLEDQAAAPSSGGLGSLTPSAAGSTSSLAGVGLLPPTPRSSGLSTPVAPSAGHLAHVREQMAGALRKLRQLEEQVKLIPVLQVKLSVLQEEKRQLTVQLKSQKFLGHPSGTRSRSELCLDLPEAPDDPAVLETRSVGTWVRERDLGIPDGEAALVAKVAVLETQLKKALQELRAAQTQQVDLQPQAWPPPDTQVRVDTVRVVEGPREVEVAASTAAGAPAQRAQSLEPYGAGLKALATSAENTLVFRSHEVVETMCPLPTASTSNMHTAKKISITERNCTGAARMADPPPSPAEPSPSSPYPAAEPENPAPAAQDTTDRELTRPVASQDSQAAEGAGGASLGVQSALKRKEVPADPDVHQRNLQFVGINGGYESSSEDSSTAENSEHESTENEAPEPPVRVLSTAEGPQLRPLGPAVGKTSQDERQLSQESQRVPEAKVAPGPDPEEEIRMDLSPDLISACLALEKYLENPNALTERELKVAYTTVLQEWLRLACRSDAHPELVRRHLVTFRAMSARLLDYVVNIADSNGNTALHYSVSHANFPVVRQLLDSGVCQVDKLNRAGYSPIMLTALATLKTQDDIDTILQLFRLGNVNAKASQAGQTALMLAVSHGRVDVVKALLACEVDVNMQDEDGSTALMCACEHGHKEITGLLLAVPSCDISLTDRDGSTALMVALDAGQSEIASMLYSRMNIKCSFAPMSDYESPASSSAEE
For the molecule B1, in experiment [2], the binding result is given as “binds”.

B2: SAMM50 (protein, UniProt Q6AXV4 1-469)
chain: MGTVHARSLEPLPSSGTDFGALGEEAEFVEVEPEAKQEILENKDVVVQHVHFDGLERTKDDIIICEIGEVFKAKNLIEVMRRSHEAREKLLRLGIFRQVDVLIDTCHGEDALPNGLDVTFEVTELRRLTGSYNTMVGNNEGSMVLGLKLPNLLGRAEKVTFQFSYGTKETSYGLSFFKPQPGNFEKNFSVNLYKVTGQFPWSSLRETDRGVSAEYSFPLCKTSHTVKWEGVWRELGCLARTASFAVRKESGHSLKSSLSHAMVIDSRNSSILPRRGALLKVNQELAGYTGGDVSFIKEDFELQLNKPLVLDSVFSTSLWGGMLVPIGDKLSSIADRFYLGGPTSVRGFSMHSIGPQSEGDYLGGEAYWAGGLHLYTPLPFRPGQGGFGELFRTHFFLNAGNLCNLNYGEGPRAHIRKLAECIRWSYGAGIVLRLGNIARLELNYCIPMGVQRGDRICDGVQFGAGIRFL
With B2, the binding entry in experiment [2] was “binds”.
